Measurements as given in the supplement of paper PMC10727501.
This is one part of the list. Repeats in this data set agree poorly, so a single value says little.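 Free-swimming zebrafish larvae were scored for O-bend response probability to dark flashes (naive: first five; training: remaining flashes of four 60-flash blocks; test: later 60-flash block) and for turning toward alternating leftward/rightward LED motion (OMR). Six treated larvae were compared with sixty 0.1% DMSO controls; |SSMD|≥2 defined a hit.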

system: Danio rerio larvae (5 dpf, TLF); test: Prob-Test (SSMD vs DMSO vehicle); higher = higher than vehicle (e.g. higher dark-flash O-bend response probability, or better optomotor performance); conditions: 10 µM; pre-incubation: 30-90 min

| Structure (SMILES) | Prob-Test |
| --- | --- |
| CC(=O)N[C@@H](CS)C(=O)O [Acetylcysteine] | -1.27 |
| CC(N)C12CC3CC(CC(C3)C1)C2 (stereo not given) [Rimantadine] | -0.444 |
| C[C@@H]1O[C@H](O[C@H]2[C@H](O)[C@@H](O)[C@@H](O[C@H]3[C@H](O)[C@@H](O)[C@H](O)O[C@H]3CO)O[C@H]2CO)[C@H](O)[C@@H](O)[C@@H]1N[C@H]1C=C(CO)[C@@H](O)[C@H](O)[C@@H]1O [Acarbose] | 0.487 |
| C[C@H](NC(=O)[C@@H](O)c1cc(F)cc(F)c1)C(=O)N[C@@H]1C(=O)N(C)c2ccccc2-c2ccccc21 | -0.386 |
| O=C(COc1ccc(C(=O)c2ccccc2)cc1)NC1CCN(Cc2ccccc2)CC1 [AdipoRon] | -1.25 |
